{"source": "paper PMC7337926", "molecules": {"B1": {"name": "nVEN-HEN2 (protein, UniProt Q9ZVW2 1-995)", "chain": "MSAQMEEPETLGKRKESESSKLRSDETPTPEPRTKRRSLKRACVHEVAVPNDYTPTKEETIHGTLDNPVFNGDMAKTYPFKLDPFQSVSVACLERKESILVSAHTSAGKTAVAEYAIAMAFRDKQRVIYTSPLKALSNQKYRELQHEFKDVGLMTGDVTLSPNASCLVMTTEILRAMLYRGSEVLKEVAWVIFDEIHYMKDRERGVVWEESIIFLPPAIKMVFLSATMSNATEFAEWICYLHKQPCHVVYTDFRPTPLQHYAFPMGGGGLYLVVDDNEQFREDSFVKMQDTFPKPKSNDGKKSANGKSGGRGAKGGGGPGDSDVYKIVKMIMERKFEPVIIFSFSRRECEQHALSMSKLDFNTDEEKEVVEQVFNNAMQCLNEEDRSLPAIELMLPLLQRGIAVHHSGLLPVIKELVELLFQEGLVKALFATETFAMGLNMPAKTVVFTAVKKWDGDSHRYIGSGEYIQMSGRAGRRGKDERGICIIMIDEQMEMNTLRDMMLGKPAPLLSTFRLSYYTILNLLSRAEGQFTAEHVIRHSFHQFQHEKALPDIGNKVSKLEEEAAILNASGEAEVAEYHNLQFDIAKHEKKLMSEIIRPERVLCFLDTGRLVKIREGGTDWGWGVVVNVVKNSSVGTGSASSHGGGYIVDTLLHCSTGFSENGAKPKPCPPRAGEKGEMHVVPVQLPLISALSRLRISVPSDLRPVEARQSILLALQELSSRFPLGFPKLHPVKDMNIQDTEIVDLVSQIEEVEQKLLAHPMHKSEDDQQIKSFQRKAEVNYEIQQLKSKMRDSQLQKFRDELKNRSRVLKKLGHIDADGVVQVKGRAACLIDTGDELLVTELMFNGTFNDLDHHQVAALASCFIPVDKSNEQVNLRNELTKPLQQLQDSARKIAEIQHECKLEIDVEEYVESTIRPFLMDVIYSWSKGASFAEIIQMTDIFEGSIIRSARRLDEFLNQLRAAAEAVGESSLESKFAAASESLRRGIMFANSLYL"}}, "key": {"[1]": {"molecular_target": "T1, HEN2 fused to the Gal4 DNA binding domain (Arabidopsis thaliana) (UniProt Q9ZVW2)", "T1 sequence": "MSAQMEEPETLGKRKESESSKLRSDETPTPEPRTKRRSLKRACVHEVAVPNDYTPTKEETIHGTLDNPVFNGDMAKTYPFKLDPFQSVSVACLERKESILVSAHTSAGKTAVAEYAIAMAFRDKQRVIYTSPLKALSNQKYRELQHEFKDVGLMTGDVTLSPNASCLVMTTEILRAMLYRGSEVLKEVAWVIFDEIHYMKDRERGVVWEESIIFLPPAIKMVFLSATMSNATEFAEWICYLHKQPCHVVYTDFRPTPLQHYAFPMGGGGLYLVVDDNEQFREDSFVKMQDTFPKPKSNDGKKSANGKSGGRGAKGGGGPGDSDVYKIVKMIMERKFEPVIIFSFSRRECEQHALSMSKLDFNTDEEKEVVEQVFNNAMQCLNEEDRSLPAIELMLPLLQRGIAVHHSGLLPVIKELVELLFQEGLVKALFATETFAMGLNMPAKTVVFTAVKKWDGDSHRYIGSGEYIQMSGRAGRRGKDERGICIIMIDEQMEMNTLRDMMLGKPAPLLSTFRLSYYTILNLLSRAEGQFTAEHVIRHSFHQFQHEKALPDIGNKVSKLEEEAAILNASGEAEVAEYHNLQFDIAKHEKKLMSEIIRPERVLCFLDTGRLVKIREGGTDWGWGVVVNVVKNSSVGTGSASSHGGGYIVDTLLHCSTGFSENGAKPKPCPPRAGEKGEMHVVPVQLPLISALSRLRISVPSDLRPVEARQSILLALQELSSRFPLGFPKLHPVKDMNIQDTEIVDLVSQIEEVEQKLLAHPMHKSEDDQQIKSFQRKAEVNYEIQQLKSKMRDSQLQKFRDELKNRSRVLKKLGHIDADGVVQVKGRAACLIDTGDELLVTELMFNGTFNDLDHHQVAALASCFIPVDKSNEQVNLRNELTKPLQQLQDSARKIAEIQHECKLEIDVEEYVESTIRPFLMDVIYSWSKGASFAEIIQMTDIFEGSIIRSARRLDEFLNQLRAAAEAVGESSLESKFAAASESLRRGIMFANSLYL", "assay": "two-hybrid; Matchmaker Gal4 system, S. cerevisiae Y2HGold, 28°C; growth on medium lacking L, T, H, A and on medium with aureobasidin and X-αGal"}, "[2]": {"molecular_target": "T2, SE fused to the Gal4 DNA binding domain (Arabidopsis thaliana) (UniProt Q9ZVD0)", "T2 sequence": "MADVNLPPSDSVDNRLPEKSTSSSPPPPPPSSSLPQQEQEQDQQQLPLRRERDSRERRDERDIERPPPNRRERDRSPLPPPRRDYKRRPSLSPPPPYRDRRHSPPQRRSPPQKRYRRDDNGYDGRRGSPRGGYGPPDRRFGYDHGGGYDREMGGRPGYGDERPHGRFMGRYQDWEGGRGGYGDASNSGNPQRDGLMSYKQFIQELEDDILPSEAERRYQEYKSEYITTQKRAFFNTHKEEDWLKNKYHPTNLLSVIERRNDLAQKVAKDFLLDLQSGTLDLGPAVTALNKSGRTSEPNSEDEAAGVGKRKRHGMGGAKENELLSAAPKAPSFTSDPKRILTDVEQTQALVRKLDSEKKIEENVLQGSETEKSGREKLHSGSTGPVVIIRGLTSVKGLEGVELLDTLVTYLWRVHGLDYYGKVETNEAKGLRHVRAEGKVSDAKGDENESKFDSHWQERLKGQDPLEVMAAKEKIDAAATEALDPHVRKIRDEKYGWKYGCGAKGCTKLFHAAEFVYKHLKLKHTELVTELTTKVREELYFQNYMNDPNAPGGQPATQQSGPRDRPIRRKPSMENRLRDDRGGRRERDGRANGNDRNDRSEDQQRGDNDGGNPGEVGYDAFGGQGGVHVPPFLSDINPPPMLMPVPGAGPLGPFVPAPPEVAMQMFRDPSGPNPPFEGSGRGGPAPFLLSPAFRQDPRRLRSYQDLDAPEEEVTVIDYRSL", "assay": "two-hybrid; Matchmaker Gal4 system, S. cerevisiae Y2HGold, 28°C; growth on medium lacking L, T, H, A and on medium with aureobasidin and X-αGal"}, "[3]": {"molecular_target": "T3, HEN2-GFP (Arabidopsis thaliana) (UniProt Q9ZVW2)", "T3 sequence": "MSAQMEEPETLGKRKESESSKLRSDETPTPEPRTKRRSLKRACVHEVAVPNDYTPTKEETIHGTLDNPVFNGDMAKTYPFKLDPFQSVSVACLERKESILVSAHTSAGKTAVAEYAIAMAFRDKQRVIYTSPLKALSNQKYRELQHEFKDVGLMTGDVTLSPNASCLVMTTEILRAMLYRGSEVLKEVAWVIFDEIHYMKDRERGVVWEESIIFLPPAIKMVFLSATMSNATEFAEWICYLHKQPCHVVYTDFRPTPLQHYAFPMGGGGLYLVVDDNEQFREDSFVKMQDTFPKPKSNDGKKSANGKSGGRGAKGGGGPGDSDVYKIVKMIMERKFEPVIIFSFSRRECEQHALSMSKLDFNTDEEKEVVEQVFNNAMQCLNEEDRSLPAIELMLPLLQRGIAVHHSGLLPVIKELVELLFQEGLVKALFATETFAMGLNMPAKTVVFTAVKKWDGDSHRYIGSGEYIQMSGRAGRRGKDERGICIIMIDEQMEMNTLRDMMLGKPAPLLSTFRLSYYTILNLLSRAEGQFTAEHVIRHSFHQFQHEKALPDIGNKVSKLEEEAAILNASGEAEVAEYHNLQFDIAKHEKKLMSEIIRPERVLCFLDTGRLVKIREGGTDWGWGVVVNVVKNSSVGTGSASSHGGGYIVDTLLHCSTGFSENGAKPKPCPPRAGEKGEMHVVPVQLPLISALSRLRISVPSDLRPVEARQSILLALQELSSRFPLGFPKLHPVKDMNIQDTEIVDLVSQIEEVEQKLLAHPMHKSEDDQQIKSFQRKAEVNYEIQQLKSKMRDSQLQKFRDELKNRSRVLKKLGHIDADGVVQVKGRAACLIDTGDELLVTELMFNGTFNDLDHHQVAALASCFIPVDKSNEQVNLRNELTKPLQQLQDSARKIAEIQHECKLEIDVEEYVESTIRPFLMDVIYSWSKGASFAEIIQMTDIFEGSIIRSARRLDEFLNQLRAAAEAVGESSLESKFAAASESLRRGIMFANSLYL", "assay": "FRET or BRET; FRET-FLIM in Arabidopsis protoplasts; GFP fusion as donor, RFP fusion as acceptor; fluorescence lifetime of the donor against the PRP39A-RFP control"}, "[4]": {"molecular_target": "T4, SE-GFP (Arabidopsis thaliana) (UniProt Q9ZVD0)", "T4 sequence": "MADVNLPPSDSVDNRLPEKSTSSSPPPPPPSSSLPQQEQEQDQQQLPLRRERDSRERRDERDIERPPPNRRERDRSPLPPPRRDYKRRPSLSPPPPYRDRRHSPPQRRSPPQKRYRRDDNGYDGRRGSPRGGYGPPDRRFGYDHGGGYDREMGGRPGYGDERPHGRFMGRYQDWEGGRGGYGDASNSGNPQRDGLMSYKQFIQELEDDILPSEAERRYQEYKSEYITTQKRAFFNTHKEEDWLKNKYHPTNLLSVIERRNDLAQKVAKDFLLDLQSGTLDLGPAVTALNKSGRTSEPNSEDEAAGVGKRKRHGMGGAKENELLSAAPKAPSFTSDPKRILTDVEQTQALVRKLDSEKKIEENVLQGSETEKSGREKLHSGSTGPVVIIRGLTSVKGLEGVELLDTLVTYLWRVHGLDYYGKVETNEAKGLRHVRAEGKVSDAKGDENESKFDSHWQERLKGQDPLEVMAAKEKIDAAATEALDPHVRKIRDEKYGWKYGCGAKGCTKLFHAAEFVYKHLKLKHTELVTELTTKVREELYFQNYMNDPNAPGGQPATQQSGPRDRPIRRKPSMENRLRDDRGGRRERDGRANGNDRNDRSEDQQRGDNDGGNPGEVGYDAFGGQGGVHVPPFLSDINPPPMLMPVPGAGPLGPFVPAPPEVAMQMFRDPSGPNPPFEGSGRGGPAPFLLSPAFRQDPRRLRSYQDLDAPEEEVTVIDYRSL", "assay": "FRET or BRET; FRET-FLIM in Arabidopsis protoplasts; GFP fusion as donor, RFP fusion as acceptor; fluorescence lifetime of the donor against the PRP39A-RFP control"}, "[5]": {"molecular_target": "ZCCHC8A-cCFP (Arabidopsis thaliana)", "assay": "split reporter; BiFC of nVEN-HEN2 and ZCCHC8A-cCFP in Arabidopsis protoplasts"}}, "note": "These are yes or no findings as the source states them, for the method shown. Binding can be weak; no strength is given. For some of these results: Sequences can lack the tags named with a protein. For some of these results: In cells and extracts the contact can be indirect.", "data": [{"molecule": "RBM7 fused to the Gal4 activation domain (Arabidopsis thaliana)", "values": [{"measurement": "binding", "setting": "[1]", "value": "no binding"}, {"measurement": "binding", "setting": "[2]", "value": "binds"}]}, {"molecule": "ZCCHC8B fused to the Gal4 activation domain (Arabidopsis thaliana)", "values": [{"measurement": "binding", "setting": "[1]", "value": "binds"}, {"measurement": "binding", "setting": "[2]", "value": "binds"}]}, {"molecule": "RBM7-RFP (Arabidopsis thaliana)", "values": [{"measurement": "binding", "setting": "[3]", "value": "no binding"}, {"measurement": "binding", "setting": "[4]", "value": "binds"}]}, {"molecule": "ZCCHC8A-RFP (Arabidopsis thaliana)", "values": [{"measurement": "binding", "setting": "[3]", "value": "binds"}, {"measurement": "binding", "setting": "[4]", "value": "binds"}]}, {"molecule": "ZCCHC8B-RFP (Arabidopsis thaliana)", "values": [{"measurement": "binding", "setting": "[3]", "value": "binds"}, {"measurement": "binding", "setting": "[4]", "value": "binds"}]}, {"molecule": "ZCCHC8A fused to the Gal4 activation domain (Arabidopsis thaliana)", "values": [{"measurement": "binding", "setting": "[1]", "value": "binds"}, {"measurement": "binding", "setting": "[2]", "value": "binds"}]}, {"molecule": "B1", "values": [{"measurement": "binding", "setting": "[5]", "value": "binds"}]}]}
